Publication PMC3145769
These are yes or no findings as the source states them, for the method shown. In cells and extracts the contact can be indirect.

The chains behind the UniProt entries cited, without tags or fusion partners. Where a name states a change or a piece, a line headed by the entry shows the natural chain unless it says otherwise.
UniProt P51943: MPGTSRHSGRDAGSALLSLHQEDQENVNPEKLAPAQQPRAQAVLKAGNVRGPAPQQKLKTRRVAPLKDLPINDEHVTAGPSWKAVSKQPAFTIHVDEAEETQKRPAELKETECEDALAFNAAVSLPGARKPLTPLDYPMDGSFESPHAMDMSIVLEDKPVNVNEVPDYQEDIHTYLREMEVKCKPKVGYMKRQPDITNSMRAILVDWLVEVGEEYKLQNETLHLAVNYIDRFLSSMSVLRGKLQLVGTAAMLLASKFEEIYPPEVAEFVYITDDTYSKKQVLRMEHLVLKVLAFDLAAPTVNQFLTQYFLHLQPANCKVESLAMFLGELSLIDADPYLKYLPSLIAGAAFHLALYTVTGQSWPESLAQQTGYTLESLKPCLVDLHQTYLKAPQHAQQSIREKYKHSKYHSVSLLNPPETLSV

B1: p107 (endogenous, HEK 293) (protein, UniProt P28749 1-1068)
chain: MFEDKPHAEGAAVVAAAGEALQALCQELNLDEGSAAEALDDFTAIRGNYSLEGEVTHWLACSLYVACRKSIIPTVGKGIMEGNCVSLTRILRSAKLSLIQFFSKMKKWMDMSNLPQEFRERIERLERNFEVSTVIFKKYEPIFLDIFQNPYEEPPKLPRSRKQRRIPCSVKDLFNFCWTLFVYTKGNFRMIGDDLVNSYHLLLCCLDLIFANAIMCPNRQDLLNPSFKGLPSDFHTADFTASEEPPCIIAVLCELHDGLLVEAKGIKEHYFKPYISKLFDRKILKGECLLDLSSFTDNSKAVNKEYEEYVLTVGDFDERIFLGADAEEEIGTPRKFTRDTPLGKLTAQANVEYNLQQHFEKKRSFAPSTPLTGRRYLREKEAVITPVASATQSVSRLQSIVAGLKNAPSDQLINIFESCVRNPVENIMKILKGIGETFCQHYTQSTDEQPGSHIDFAVNRLKLAEILYYKILETVMVQETRRLHGMDMSVLLEQDIFHRSLMACCLEIVLFAYSSPRTFPWIIEVLNLQPFYFYKVIEVVIRSEEGLSRDMVKHLNSIEEQILESLAWSHDSALWEALQVSANKVPTCEEVIFPNNFETGNGGNVQGHLPLMPMSPLMHPRVKEVRTDSGSLRRDMQPLSPISVHERYSSPTAGSAKRRLFGEDPPKEMLMDKIITEGTKLKIAPSSSITAENVSILPGQTLLTMATAPVTGTTGHKVTIPLHGVANDAGEITLIPLSMNTNQESKVKSPVSLTAHSLIGASPKQTNLTKAQEVHSTGINRPKRTGSLALFYRKVYHLASVRLRDLCLKLDVSNELRRKIWTCFEFTLVHCPDLMKDRHLDQLLLCAFYIMAKVTKEERTFQEIMKSYRNQPQANSHVYRSVLLKSIPREVVAYNKNINDDFEMIDCDLEDATKTPDCSSGPVKEERGDLIKFYNTIYVGRVKSFALKYDLANQDHMMDAPPLSPFPHIKQQPGSPRRISQQHSIYISPHKNGSGLTPRSALLYKFNGSPSKSLKDINNMIRQGEQRTKKRVIAIDSDAESPAKRVCQENDDVLLKRLQDVVSERANH
B2: p21 (endogenous, NIH3T3) (protein, UniProt P39689 1-159)
chain: MSNPGDVRPVPHRSKVCRCLFGPVDSEQLRRDCDALMAGCLQEARERWNFDFVTETPLEGNFVWERVRSLGLPKVYLSPGSRSRDDLGGDKRPSTSSALLQGPAPEDHVALSLSCTLVSERPEDSPGGPGTSQGRKRRQTSLTDFYHSKRRLVFCKRKP
B3: p107 (endogenous, NIH3T3) (protein, UniProt Q64701 1-1063)
chain: MFEDEPHAEGAAAVAAAREALQALCQELNLDEGSAAEALDDFTAIRGNYSLEGEVIHWLACSLYVACRKSIIPTVGKGVMEGNCVSLTRILRSAKLSLIQFFSKMKKWMDMSNLPQEFRERIERLERNFEVSTVIFKKFEPIFLDIFQNPYEEPPKLPRSRKQRRIPCSVKDLFNFCWTLFVYTKGNFRMIGDDLVNSYHLLLCCLDLIFANAIMCPNRRDLLNPSFKGLPSDFHAPDFKAAEEPPCIIAVLCDLHDGLLVEAKGIKEHYFKPYISKLFDKKILKGECLLDLSSFTDNSKAVNKEYEEYVLTVGDFDERIFLGADAEEEIGTPRKFTADTPFGKLTSQASVECNLQQHFEKKRSFAPSTPLTGRRYLQEKEAVTTPVASATQSVSRLQSIVAGLKSAPSEQLLNIFESCMRNPMGNIIKIVKGIGETFCQHYTQSTDKQPGSHIDFAVNRLKLAEILYYKILETIMVQETRRLHGMDMSVLLEQDIFHKSLMACCLEIVLFAYSSPRTFPWIIEVLDLQPFYFYKVIEVVIRSEEGLSRDMVKHLNSIEEQILESLAWTNNSALWEALHASANRVPSCEEVIFPNNFEIGNGGNVQGHLPMMPMSPIIHPRVKEVRTDSGSLRQDMQPLSPISVHERYSSPAAGSAKRRLFGDDPPKDTLMDKIMAEGTKLKIAPSSVTAESLSISPGQALLTMATTTVTGTTGRKVTVPLHGIANDAGEITLVPISMNPTQESTAESPVSLTAQSLIGTSPKQTHLTKAQDAHLTGVSKPKRTGSLALFYRKVYHLASVRLRDLCLKLDVSNELRRKIWTCFEFTLVHCPDLMKDRHLDQLLLCAFYIMAKVTKEERTFQEIMKSYRNQPQANSHVYRSVLLKSIPGGVVVYNGDCEMTDGDIEDATKTPNCSSEPVKEERGDLIKFYNTVYVGRVKSFALKYDLSNQDHIMDAPPLSPFPHIKQQPGSPRRISQQHSLYVSPHKNGAGLTPRSALLYKFNGSPSKSLKDINNMIRQGEQKTKKRVIAISGDADSPAKRLCQENDDVLLKRLQDVVSERANH

Columns and labels:
[1] = biological target: Cyclin A2 W207A, C-terminally fused to 3 Flag tags (mouse) (UniProt P51943); experiment: co-IP; anti-Flag M2 affinity gel on extracts of human HEK 293 cells transfected with mouse 3xFlag Cyclin A2 alleles; endogenous partners detected by Western blot; densitometry (ImageQuantTL) normalised to immunoprecipitated Cyclin A2, percent of WT; repeated 3 times
[2] = biological target: Cyclin A2 Triple (M200A, L204A, W207A), C-terminally fused to 3 Flag tags (mouse) (UniProt P51943); experiment: as above
[3] = biological target: Cyclin A2 Triple (M200A, L204A, W207A), C-terminally fused to 3 Flag tags (mouse) (UniProt P51943); experiment: co-IP; anti-Flag M2 affinity gel on extracts of NIH3T3 cells transfected with 3xFlag Cyclin A2 alleles; endogenous partners detected by Western blot; densitometry (ImageQuantTL) normalised to immunoprecipitated Cyclin A2, percent of WT; repeated 5 times
[4] = biological target: Cyclin A2 W207A, C-terminally fused to 3 Flag tags (mouse) (UniProt P51943); experiment: as above

Row | Binder | binding [1] | binding [2] | binding [3] | binding [4]
1 | B1 | no binding | no binding |  | 
2 | B2 |  |  | no binding | 
3 | B3 |  |  | no binding | no binding
